Some of the results follow. The calls rarely recur for the same compound in another form.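 Kinases were expressed as nanoluciferase fusions in K562 cells and luminescence was read every 4 h between 2 and 18 h as percent of control, DMSO set to 100% and a positive control to 0%. A time point counts as decreased when the signal drops significantly (2 sigma). The hit call is the authors' own, does not follow from the count of time points alone, and its rule is not shown.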
Key:
Details in all cases: K562; 2-18 h
STK38 = STK38 (UniProt Q15208); assay: kinase-Nluc reporter destabilization hit call (1 = scored as downregulated) (binary); higher = compound decreases kinase abundance
SYK = SYK (UniProt P43405); assay: as above
TEC = TEC (UniProt P42680); assay: as above
TYK2 = TYK2 (UniProt P29597); assay: as above
ULK3 = ULK3 (UniProt Q6PHR2); assay: as above
YES1 = YES1 (UniProt P07947); assay: as above
ZAK = ZAK (UniProt Q9NYL2); assay: as above
ZAP70 = ZAP70 (UniProt P43403); assay: as above
ABL1 = ABL1 (UniProt P00519); assay: number of time points (of 5) at which kinase-Nluc abundance scored as decreased, DMSO-normalised (count); higher = more persistent destabilization
AKT1 = AKT1 (UniProt P31749); assay: as above
ALK = ALK (UniProt Q9UM73); assay: as above
ARAF = ARAF (UniProt P10398); assay: as above
AURKA = AURKA (UniProt O14965); assay: as above
AURKB = AURKB (UniProt Q96GD4); assay: as above
AURKC = AURKC (UniProt Q9UQB9); assay: as above
BLK = BLK (UniProt P51451); assay: as above
BMX = BMX (UniProt P51813); assay: as above
BRAF = BRAF (UniProt P15056); assay: as above
BRAF_V600E = assay: as above
BTK = BTK (UniProt Q06187); assay: as above

Amino acid sequences for entries named in this document (tags omitted). A change or cut given only in a name is not applied to a line headed by its entry.
UniProt Q15208: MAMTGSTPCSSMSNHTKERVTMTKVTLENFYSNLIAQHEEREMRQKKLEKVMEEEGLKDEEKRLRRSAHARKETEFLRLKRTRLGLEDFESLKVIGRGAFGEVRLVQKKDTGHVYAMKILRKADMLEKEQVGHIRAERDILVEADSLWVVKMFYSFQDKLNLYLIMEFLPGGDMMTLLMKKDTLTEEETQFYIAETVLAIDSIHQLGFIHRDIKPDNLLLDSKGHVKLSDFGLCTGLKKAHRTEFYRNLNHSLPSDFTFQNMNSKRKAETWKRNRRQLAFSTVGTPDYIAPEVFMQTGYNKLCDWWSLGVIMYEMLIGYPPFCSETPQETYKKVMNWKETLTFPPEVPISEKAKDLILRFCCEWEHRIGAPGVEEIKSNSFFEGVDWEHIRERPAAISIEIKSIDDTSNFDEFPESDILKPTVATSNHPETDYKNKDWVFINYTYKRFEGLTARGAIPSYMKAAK
UniProt P43403: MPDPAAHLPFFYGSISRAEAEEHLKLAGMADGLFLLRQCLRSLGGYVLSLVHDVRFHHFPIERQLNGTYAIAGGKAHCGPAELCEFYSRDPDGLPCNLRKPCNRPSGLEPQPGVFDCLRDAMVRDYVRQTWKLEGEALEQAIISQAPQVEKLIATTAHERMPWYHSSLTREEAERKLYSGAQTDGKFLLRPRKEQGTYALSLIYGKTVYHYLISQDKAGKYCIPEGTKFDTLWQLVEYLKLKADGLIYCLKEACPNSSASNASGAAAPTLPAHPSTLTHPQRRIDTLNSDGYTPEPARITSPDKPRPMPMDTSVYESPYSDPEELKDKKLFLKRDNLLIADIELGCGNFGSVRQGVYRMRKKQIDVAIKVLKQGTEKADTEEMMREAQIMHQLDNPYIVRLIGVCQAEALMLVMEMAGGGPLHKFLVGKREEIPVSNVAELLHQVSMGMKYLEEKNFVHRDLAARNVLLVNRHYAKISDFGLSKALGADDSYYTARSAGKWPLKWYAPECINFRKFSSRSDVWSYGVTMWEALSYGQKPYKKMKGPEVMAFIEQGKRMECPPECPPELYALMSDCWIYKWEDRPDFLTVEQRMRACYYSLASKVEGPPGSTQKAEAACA
UniProt P00519, whole entry: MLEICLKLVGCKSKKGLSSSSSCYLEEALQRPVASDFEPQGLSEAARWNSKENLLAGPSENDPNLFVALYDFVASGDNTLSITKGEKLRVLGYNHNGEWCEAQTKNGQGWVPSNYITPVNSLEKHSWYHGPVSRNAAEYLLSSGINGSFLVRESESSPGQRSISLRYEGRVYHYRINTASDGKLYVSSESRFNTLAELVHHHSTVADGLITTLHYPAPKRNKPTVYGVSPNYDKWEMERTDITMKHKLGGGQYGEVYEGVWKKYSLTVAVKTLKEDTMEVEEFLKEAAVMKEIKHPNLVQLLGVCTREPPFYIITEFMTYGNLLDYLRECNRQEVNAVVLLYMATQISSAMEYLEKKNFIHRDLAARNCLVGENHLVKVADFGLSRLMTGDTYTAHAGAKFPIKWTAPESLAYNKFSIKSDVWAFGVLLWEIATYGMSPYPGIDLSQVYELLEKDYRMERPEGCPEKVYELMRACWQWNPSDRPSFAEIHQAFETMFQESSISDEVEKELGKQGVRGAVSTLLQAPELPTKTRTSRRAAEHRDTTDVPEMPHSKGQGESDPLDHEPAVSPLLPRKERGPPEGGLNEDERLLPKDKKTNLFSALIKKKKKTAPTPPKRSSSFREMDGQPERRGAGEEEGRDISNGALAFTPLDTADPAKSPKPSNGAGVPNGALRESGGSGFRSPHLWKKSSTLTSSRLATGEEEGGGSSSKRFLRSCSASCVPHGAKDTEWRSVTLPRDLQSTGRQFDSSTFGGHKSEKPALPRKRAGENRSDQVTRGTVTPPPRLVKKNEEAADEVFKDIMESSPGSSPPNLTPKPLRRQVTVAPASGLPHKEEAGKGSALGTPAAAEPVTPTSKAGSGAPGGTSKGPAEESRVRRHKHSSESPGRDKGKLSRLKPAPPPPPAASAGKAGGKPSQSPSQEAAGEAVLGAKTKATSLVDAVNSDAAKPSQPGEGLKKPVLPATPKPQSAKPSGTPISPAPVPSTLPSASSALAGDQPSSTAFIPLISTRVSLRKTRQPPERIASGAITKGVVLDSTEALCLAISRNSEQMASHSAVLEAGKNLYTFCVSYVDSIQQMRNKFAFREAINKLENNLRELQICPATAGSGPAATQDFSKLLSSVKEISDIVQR
UniProt P31749: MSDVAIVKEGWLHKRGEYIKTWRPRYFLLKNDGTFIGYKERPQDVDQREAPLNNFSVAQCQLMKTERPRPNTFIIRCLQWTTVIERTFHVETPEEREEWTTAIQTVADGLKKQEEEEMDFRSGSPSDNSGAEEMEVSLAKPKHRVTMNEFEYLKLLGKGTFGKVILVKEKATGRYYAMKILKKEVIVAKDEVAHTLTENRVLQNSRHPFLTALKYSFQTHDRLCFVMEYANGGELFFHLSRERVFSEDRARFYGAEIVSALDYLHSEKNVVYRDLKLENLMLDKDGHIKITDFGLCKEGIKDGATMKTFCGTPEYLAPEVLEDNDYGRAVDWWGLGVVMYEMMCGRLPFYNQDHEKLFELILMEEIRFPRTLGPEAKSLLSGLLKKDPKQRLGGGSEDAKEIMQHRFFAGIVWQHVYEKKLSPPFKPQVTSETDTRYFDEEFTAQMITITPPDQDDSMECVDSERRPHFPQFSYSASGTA
UniProt Q9UM73: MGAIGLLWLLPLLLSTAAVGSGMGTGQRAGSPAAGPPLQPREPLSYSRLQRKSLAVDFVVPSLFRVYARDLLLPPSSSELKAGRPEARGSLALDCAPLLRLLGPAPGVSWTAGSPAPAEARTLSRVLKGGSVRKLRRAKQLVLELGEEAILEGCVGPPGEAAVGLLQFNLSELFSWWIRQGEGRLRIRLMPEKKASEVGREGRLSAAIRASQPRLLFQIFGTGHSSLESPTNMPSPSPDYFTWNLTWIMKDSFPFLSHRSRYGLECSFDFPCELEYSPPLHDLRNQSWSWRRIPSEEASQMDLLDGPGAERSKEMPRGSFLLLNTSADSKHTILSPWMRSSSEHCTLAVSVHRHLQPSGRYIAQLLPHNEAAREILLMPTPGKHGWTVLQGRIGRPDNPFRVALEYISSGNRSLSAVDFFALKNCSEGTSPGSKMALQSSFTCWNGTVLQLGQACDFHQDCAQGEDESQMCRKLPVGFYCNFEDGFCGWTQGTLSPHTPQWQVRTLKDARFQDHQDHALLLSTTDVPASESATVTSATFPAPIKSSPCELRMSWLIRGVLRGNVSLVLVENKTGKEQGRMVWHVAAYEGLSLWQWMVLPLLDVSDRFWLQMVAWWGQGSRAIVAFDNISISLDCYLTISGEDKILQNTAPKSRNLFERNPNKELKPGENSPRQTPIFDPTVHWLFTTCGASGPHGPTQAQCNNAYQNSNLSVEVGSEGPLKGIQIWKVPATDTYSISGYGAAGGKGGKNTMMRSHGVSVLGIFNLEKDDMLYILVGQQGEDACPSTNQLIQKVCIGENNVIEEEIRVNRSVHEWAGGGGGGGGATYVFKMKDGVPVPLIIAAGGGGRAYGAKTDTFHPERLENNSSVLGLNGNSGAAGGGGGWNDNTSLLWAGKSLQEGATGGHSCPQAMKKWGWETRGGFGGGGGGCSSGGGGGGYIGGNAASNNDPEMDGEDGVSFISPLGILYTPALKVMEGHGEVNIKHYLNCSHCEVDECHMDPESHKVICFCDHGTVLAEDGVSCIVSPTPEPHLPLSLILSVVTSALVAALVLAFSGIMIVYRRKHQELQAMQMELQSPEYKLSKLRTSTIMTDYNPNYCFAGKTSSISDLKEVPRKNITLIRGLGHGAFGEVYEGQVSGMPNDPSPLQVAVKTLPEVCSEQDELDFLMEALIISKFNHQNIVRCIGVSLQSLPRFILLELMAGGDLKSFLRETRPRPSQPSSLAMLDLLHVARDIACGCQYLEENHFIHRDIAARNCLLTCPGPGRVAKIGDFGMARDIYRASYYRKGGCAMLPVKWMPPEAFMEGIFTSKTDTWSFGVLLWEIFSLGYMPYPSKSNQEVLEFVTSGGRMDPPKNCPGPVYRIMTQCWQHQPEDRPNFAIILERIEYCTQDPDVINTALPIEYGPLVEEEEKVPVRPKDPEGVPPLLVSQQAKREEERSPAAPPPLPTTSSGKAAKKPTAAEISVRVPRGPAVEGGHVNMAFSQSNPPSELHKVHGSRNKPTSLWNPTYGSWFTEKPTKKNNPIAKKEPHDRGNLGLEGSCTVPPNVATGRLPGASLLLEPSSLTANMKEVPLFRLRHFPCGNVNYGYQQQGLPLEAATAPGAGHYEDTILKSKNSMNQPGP
UniProt P10398: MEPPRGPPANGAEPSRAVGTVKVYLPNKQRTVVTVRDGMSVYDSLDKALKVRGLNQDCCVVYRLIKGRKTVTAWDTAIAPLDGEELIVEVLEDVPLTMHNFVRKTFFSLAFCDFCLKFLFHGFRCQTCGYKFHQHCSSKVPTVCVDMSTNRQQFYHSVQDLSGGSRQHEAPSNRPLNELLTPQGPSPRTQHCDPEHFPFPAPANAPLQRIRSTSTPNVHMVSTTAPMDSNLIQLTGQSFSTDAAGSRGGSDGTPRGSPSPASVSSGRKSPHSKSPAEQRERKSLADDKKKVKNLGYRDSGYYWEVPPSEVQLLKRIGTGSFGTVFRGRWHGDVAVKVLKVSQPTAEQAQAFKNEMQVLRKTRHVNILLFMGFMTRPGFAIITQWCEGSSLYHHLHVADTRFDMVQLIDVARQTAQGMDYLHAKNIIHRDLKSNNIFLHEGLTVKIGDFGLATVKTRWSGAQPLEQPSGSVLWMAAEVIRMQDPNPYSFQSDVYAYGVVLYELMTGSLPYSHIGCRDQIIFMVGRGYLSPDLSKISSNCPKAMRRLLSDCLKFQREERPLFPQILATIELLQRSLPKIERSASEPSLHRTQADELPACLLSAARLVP
UniProt Q9UQB9: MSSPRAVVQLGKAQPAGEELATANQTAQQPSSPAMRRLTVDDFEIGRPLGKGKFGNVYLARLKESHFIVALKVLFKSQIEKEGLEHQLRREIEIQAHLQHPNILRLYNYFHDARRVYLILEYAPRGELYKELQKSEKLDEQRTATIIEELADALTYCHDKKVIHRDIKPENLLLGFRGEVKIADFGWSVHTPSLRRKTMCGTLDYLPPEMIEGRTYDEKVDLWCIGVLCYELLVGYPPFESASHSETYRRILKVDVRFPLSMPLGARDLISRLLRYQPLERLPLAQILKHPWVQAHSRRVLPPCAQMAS
UniProt P51451: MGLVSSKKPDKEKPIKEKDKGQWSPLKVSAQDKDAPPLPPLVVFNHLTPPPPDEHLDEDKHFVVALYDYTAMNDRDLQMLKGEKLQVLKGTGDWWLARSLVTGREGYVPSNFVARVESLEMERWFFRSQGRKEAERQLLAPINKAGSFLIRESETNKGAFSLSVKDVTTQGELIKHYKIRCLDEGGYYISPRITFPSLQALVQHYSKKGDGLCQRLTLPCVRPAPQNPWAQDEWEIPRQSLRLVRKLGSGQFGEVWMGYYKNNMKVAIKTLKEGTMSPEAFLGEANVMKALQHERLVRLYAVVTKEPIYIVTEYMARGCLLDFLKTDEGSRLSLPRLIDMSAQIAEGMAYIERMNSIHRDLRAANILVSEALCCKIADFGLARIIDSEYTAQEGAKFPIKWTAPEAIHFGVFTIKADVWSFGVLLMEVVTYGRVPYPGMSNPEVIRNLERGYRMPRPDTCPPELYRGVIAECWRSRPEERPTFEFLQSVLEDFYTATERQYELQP
UniProt P15056, whole entry, looked up: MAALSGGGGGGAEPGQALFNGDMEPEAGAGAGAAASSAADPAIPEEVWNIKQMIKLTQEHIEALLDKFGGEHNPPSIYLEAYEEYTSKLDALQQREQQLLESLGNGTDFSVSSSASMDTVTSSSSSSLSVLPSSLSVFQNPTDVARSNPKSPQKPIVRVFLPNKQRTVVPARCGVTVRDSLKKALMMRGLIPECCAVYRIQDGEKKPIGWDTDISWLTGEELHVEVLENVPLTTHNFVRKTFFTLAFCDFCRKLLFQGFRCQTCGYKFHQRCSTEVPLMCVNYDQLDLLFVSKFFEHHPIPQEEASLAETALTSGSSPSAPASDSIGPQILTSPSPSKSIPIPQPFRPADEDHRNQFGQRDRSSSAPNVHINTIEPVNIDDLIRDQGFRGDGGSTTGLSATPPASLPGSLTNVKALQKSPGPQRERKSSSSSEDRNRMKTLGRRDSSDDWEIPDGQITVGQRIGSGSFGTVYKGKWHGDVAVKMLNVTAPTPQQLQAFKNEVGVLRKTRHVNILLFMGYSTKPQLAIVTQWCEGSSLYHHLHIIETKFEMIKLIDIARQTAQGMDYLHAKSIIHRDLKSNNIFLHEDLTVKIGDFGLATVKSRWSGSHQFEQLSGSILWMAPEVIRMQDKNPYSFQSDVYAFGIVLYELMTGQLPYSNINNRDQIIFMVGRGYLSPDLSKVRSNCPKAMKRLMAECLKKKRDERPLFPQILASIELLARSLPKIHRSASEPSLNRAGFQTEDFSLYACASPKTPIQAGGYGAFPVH

Row | Structure (SMILES) | kinase-Nluc reporter destabilization hit call (STK38) | kinase-Nluc reporter destabilization hit call (SYK) | kinase-Nluc reporter destabilization hit call (TEC) | kinase-Nluc reporter destabilization hit call (TYK2) | kinase-Nluc reporter destabilization hit call (ULK3) | kinase-Nluc reporter destabilization hit call (YES1) | kinase-Nluc reporter destabilization hit call (ZAK) | kinase-Nluc reporter destabilization hit call (ZAP70) | number of time points (ABL1) | number of time points (AKT1) | number of time points (ALK) | number of time points (ARAF) | number of time points (AURKA) | number of time points (AURKB) | number of time points (AURKC) | number of time points (BLK) | number of time points (BMX) | number of time points (BRAF) | number of time points (BRAF_V600E) | number of time points (BTK)
1 | CCCCC[C@H](O)CC(=O)CCc1ccc(O)c(OC)c1 [[6]-Gingerol] (10 µM) | inactive: 0 | inactive: 0 | inactive: 0 | inactive: 0 | inactive: 0 | inactive: 0 | inactive: 0 | inactive: 0 | 0 | 0 | 0 | 0 | 0 | 0 | 0 | 0 | 0 | 0 | 0 | 0
2 | CNC(=O)c1ccccc1Nc1nc(Nc2ccc(N3CCOCC3)cc2OC)ncc1Cl (2.5 µM) | inactive: 0 | inactive: 0 | inactive: 0 | inactive: 0 | inactive: 0 | inactive: 0 | inactive: 0 | inactive: 0 | 0 | 0 | 0 | 0 | 0 | 0 | 0 | 0 | 0 | 0 | 0 | 0
3 | Oc1ccc(-c2nc(-c3ccc(F)cc3)c(-c3ccncc3)[nH]2)cc1 (2.5 µM) | inactive: 0 | inactive: 0 | inactive: 0 | inactive: 0 | inactive: 0 | inactive: 0 | inactive: 0 | inactive: 0 | 0 | 0 | 0 | 0 | 0 | 0 | 0 | 0 | 0 | 0 | 0 | 0
4 | Cc1ccc(S(=O)(=O)Nc2nc3ccccc3nc2Nc2ccc3nsnc3c2)cc1 [Pilaralisib analogue] (10 µM) | inactive: 0 | inactive: 0 | inactive: 0 | inactive: 0 | active: 1 | inactive: 0 | inactive: 0 | inactive: 0 | 2 | 0 | 0 | 0 | 0 | 0 | 1 | 0 | 0 | 5 | 0 | 4
5 | CNc1nc(-c2ccc3c(N)n[nH]c3c2)cc(N2C[C@@H](C(=O)NC3CCCCC3)CC[C@H]2C)n1 (10 µM) | inactive: 0 | inactive: 0 | inactive: 0 | inactive: 0 | inactive: 0 | inactive: 0 | inactive: 0 | inactive: 0 | 2 | 0 | 0 | 0 | 0 | 0 | 0 | 0 | 0 | 0 | 0 | 0
6 | O=c1oc2c(O)c(O)cc3c(=O)oc4c(O)c(O)cc1c4c23 [Ellagic acid] (10 µM) | inactive: 0 | inactive: 0 | inactive: 0 | inactive: 0 | inactive: 0 | inactive: 0 | inactive: 0 | inactive: 0 | 0 | 0 | 0 | 0 | 0 | 0 | 0 | 0 | 0 | 0 | 0 | 0
7 | C=CC(=O)Nc1cccc(Nc2nc(Nc3ccc(OCCOC)cc3)ncc2F)c1 [Spebrutinib] (10 µM) | inactive: 0 | inactive: 0 | inactive: 0 | inactive: 0 | inactive: 0 | inactive: 0 | inactive: 0 | inactive: 0 | 0 | 0 | 0 | 0 | 0 | 0 | 0 | 0 | 0 | 0 | 0 | 0
8 | Cc1ncc(-c2ccnc(Nc3ccc(S(C)(=O)=O)cc3)n2)n1C(C)C (2.5 µM) | inactive: 0 | inactive: 0 | inactive: 0 | inactive: 0 | inactive: 0 | inactive: 0 | inactive: 0 | inactive: 0 | 0 | 0 | 0 | 0 | 3 | 0 | 0 | 0 | 3 | 0 | 1 | 0
9 | CC[C@H](CO)Nc1nc(NCc2ccccc2)c2ncn(C(C)C)c2n1 [Seliciclib] (10 µM) | inactive: 0 | inactive: 0 | inactive: 0 | inactive: 0 | inactive: 0 | inactive: 0 | inactive: 0 | inactive: 0 | 0 | 0 | 0 | 0 | 0 | 0 | 0 | 0 | 0 | 0 | 0 | 0
10 | CCN(CCCOc1ccc2c(Nc3cc(CC(=O)Nc4cccc(F)c4)[nH]n3)ncnc2c1)CCOP(=O)(O)O [Barasertib] (10 µM) | inactive: 0 | inactive: 0 | inactive: 0 | inactive: 0 | inactive: 0 | inactive: 0 | inactive: 0 | inactive: 0 | 0 | 0 | 0 | 0 | 0 | 0 | 0 | 0 | 3 | 0 | 2 | 0
11 | COc1ccc(F)c(F)c1C(=O)c1cnc(NC2CCN(S(C)(=O)=O)CC2)nc1N (2.5 µM) | inactive: 0 | inactive: 0 | inactive: 0 | inactive: 0 | inactive: 0 | inactive: 0 | inactive: 0 | inactive: 0 | 0 | 0 | 3 | 0 | 3 | 2 | 0 | 2 | 2 | 0 | 3 | 1
12 | Cc1ccc(F)c(NC(=O)Nc2ccc(-c3cccc4[nH]nc(N)c34)cc2)c1 [Linifanib] (2.5 µM) | inactive: 0 | inactive: 0 | inactive: 0 | active: 1 | inactive: 0 | inactive: 0 | inactive: 0 | inactive: 0 | 5 | 0 | 5 | 0 | 0 | 0 | 0 | 0 | 0 | 2 | 0 | 0
13 | CCN(CC)CCCCNc1ncc2cc(-c3cc(OC)cc(OC)c3)c(NC(=O)NC(C)(C)C)nc2n1 (10 µM) | inactive: 0 | inactive: 0 | inactive: 0 | inactive: 0 | inactive: 0 | inactive: 0 | inactive: 0 | inactive: 0 | 0 | 0 | 0 | 0 | 0 | 0 | 0 | 0 | 0 | 0 | 0 | 0
14 | COCCNCCc1cccc(Nc2ncc3c(n2)-c2ccccc2[C@H](c2ccccc2F)C3)c1 [Derazantinib] (2.5 µM) | inactive: 0 | inactive: 0 | inactive: 0 | inactive: 0 | inactive: 0 | inactive: 0 | inactive: 0 | inactive: 0 | 0 | 0 | 0 | 0 | 0 | 0 | 0 | 0 | 1 | 0 | 0 | 0
15 | CCN1CCN(Cc2ccc(C(=O)Nc3ccc(C)c(Oc4ccc5c(c4)CC(=O)N5)c3)cc2C(F)(F)F)CC1 (2.5 µM) | inactive: 0 | inactive: 0 | inactive: 0 | inactive: 0 | inactive: 0 | inactive: 0 | inactive: 0 | inactive: 0 | 2 | 1 | 2 | 0 | 1 | 2 | 0 | 0 | 3 | 1 | 3 | 0
16 | COc1cc(F)cc([C@@H](CO)NC(=O)[C@@H](C)N2Cc3ccc(-c4nc(NC5CCOCC5)ncc4Cl)cc3C2=O)c1 [ERK1/2 inhibitor 2] (10 µM) | inactive: 0 | inactive: 0 | inactive: 0 | inactive: 0 | inactive: 0 | inactive: 0 | inactive: 0 | inactive: 0 | 0 | 0 | 0 | 0 | 0 | 0 | 0 | 0 | 0 | 0 | – | 0
17 | COc1cc2c(Nc3ccc(NC(=O)c4ccccc4)cc3)ncnc2cc1OCCCN1CCOCC1 (10 µM) | inactive: 0 | inactive: 0 | inactive: 0 | inactive: 0 | inactive: 0 | inactive: 0 | inactive: 0 | inactive: 0 | 5 | 0 | 0 | 0 | 0 | 0 | 0 | 0 | 0 | 0 | 0 | 0
18 | O=C(Nc1ccc(-c2ccnc(Nc3ccc(N4CCOCC4)cc3)n2)cc1)C1CCCN1 (stereo not drawn) (10 µM) | inactive: 0 | inactive: 0 | inactive: 0 | inactive: 0 | inactive: 0 | inactive: 0 | inactive: 0 | inactive: 0 | 0 | 0 | 0 | 0 | 0 | 0 | 0 | 0 | 0 | 0 | 0 | 0
19 | C[C@H](NC(=O)/C(C#N)=C/c1cccc(Br)n1)c1ccccc1 (2.5 µM) | inactive: 0 | inactive: 0 | inactive: 0 | inactive: 0 | inactive: 0 | inactive: 0 | inactive: 0 | inactive: 0 | 0 | 0 | 0 | 0 | 3 | 4 | 0 | 0 | 0 | 0 | 0 | 0
20 | COc1ccc(COc2ccc(Cc3cnc(N)nc3N)cc2OC)cc1 (10 µM) | inactive: 0 | inactive: 0 | inactive: 0 | inactive: 0 | inactive: 0 | inactive: 0 | inactive: 0 | inactive: 0 | 0 | 0 | 0 | 0 | 0 | 0 | 0 | 0 | 0 | 0 | 0 | 0
21 | CCn1c(=O)c2cc(C(N)=O)c(N)nc2n(C2CC2)c1=O (10 µM) | inactive: 0 | inactive: 0 | inactive: 0 | inactive: 0 | inactive: 0 | inactive: 0 | inactive: 0 | inactive: 0 | 0 | 0 | 0 | 0 | 0 | 0 | 0 | 0 | 0 | 0 | – | 0
22 | N#C/C(=C\c1ccc(O)c(O)c1)C(=O)NCc1ccccc1 (10 µM) | inactive: 0 | inactive: 0 | inactive: 0 | inactive: 0 | inactive: 0 | inactive: 0 | inactive: 0 | inactive: 0 | 0 | 0 | 0 | 0 | 0 | 0 | 0 | 0 | 0 | 0 | 0 | 0

Record cards, from the list above. Values in the order: kinase-Nluc reporter destabilization hit call (STK38)	kinase-Nluc reporter destabilization hit call (SYK)	kinase-Nluc reporter destabilization hit call (TEC)	kinase-Nluc reporter destabilization hit call (TYK2)	kinase-Nluc reporter destabilization hit call (ULK3)	kinase-Nluc reporter destabilization hit call (YES1)	kinase-Nluc reporter destabilization hit call (ZAK)	kinase-Nluc reporter destabilization hit call (ZAP70)	number of time points (ABL1)	number of time points (AKT1)	number of time points (ALK)	number of time points (ARAF)	number of time points (AURKA)	number of time points (AURKB)	number of time points (AURKC)	number of time points (BLK)	number of time points (BMX)	number of time points (BRAF)	number of time points (BRAF_V600E)	number of time points (BTK)
`O=c1oc2c(O)c(O)cc3c(=O)oc4c(O)c(O)cc1c4c23` [Ellagic acid] (10 µM) is listed with inactive: 0	inactive: 0	inactive: 0	inactive: 0	inactive: 0	inactive: 0	inactive: 0	inactive: 0	0	0	0	0	0	0	0	0	0	0	0	0
`CCCCC[C@H](O)CC(=O)CCc1ccc(O)c(OC)c1` [[6]-Gingerol] (10 µM) is listed with inactive: 0	inactive: 0	inactive: 0	inactive: 0	inactive: 0	inactive: 0	inactive: 0	inactive: 0	0	0	0	0	0	0	0	0	0	0	0	0

Source: the supplement of paper PMC12823440, “Inhibitors supercharge kinase turnover through native proteolytic circuits” (Nature, 2025)
